Data on 23 sequences can be found in publication PMC7819943, “Rice protein-binding microarrays: a tool to detect cis-acting elements near promoter regions in rice”.

The chains behind the UniProt entries cited, without tags or fusion partners.
UniProt Q0JBA9, entry or part of it: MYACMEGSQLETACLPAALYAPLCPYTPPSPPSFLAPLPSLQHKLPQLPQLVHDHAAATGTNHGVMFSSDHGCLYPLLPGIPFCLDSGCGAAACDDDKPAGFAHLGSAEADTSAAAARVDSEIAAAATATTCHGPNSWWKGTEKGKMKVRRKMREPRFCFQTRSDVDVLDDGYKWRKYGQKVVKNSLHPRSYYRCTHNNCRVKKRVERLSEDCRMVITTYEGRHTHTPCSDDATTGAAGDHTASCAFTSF

Some of the results follow.

In the experiment the target is OsWRKY34 (Oryza sativa, UniProt Q0JBA9 1-250). Briefly: protein-binding microarray (RPBM); PBS, 2% BSA, 51.3 ng/ul salmon testes DNA, 50 uM zinc acetate, 200 nM TF, 25 C, 1 h; high values mean tight binding. As to conditions: protein: recombinant; tags: N-terminal polyhistidine and DsRed monomer fusion (pET32a); label: CyDye5-dUTP incorporated in the synthesized complementary strand; 3' TTTTT single-stranded linker to array surface; dsDNA, one strand shown. In short, it runs like this: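 Using Ni–NTA, transcription factors fused N-terminally to polyhistidine and DsRed were purified after expression in E. coli BL21-CodonPlus. These were incubated at 200 nM with a blocked, double-stranded custom Agilent array for 1 h at 25 °C in a buffer containing 50 µM zinc acetate, and the array was washed. The binding signal is per-feature fluorescence intensity (arbitrary units) on an Axon 4000B scanner.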
For “TCCAACCCAACCCCAACCCACACCCACACGGCCCAAACCCCGGAGTCACCTAGTGCAG”, the binding signal was 8480 fluorescence intensity (a.u.). As for “AACCTGTGCATTTTTGCGCAAATGTGCATATTGTTCTATCCGGAGTCACCTAGTGCAG”, the binding signal is 8700 fluorescence intensity (a.u.). In the case of “AGTGATGTGTGTGCTTGTGTGTGCTCTACTTCTACTCGTCCGGAGTCACCTAGTGCAG”, the binding signal was 12000 fluorescence intensity (a.u.). The value for “GACCCCGTCGCCTGCCGCCGCCGACCTCACCACCTTCAGACGGAGTCACCTAGTGCAG” was 10000 fluorescence intensity (a.u.); that for “ACTCCTTTTCGTTTGCCTCCTATTTTCGAGTCACATAACACGGAGTCACCTAGTGCAG” was 8260 fluorescence intensity (a.u.). The same measure for “AGCACTAGCACGAGCCCATCATCCACCCCTCAACTCCACTCGGAGTCACCTAGTGCAG”: 8750 fluorescence intensity (a.u.). In the case of “GAGTTAGTGTGGCTTTTGCCTTTCTGTTCCTTGCATCATGCGGAGTCACCTAGTGCAG”, the binding signal is 10700 fluorescence intensity (a.u.).

For the sequence “ATTCACACTCCACTTCACTCGCTCACGCTTCGCCGTCCGCCGGAGTCACCTAGTGCAG”, the binding signal is 9230 fluorescence intensity (a.u.). The same measure for “CTCCCGCAACTTCACCGTCTCGTCTCATCTCATCTCGTCTCGGAGTCACCTAGTGCAG”: 10000 fluorescence intensity (a.u.); for “CCGGCGACGAATTGCTGCAGGGGCGGTTCTTCTTCTTCGTCGGAGTCACCTAGTGCAG”: 9490 fluorescence intensity (a.u.). The value for “GCTTTTGCATTGCCATTGTTTACCCAAATGTTGTAAGCATCGGAGTCACCTAGTGCAG” was 8310 fluorescence intensity (a.u.); that for “AAACATCATCTACTCATCTCTCTTTTATTTTTCTTTTATTCGGAGTCACCTAGTGCAG” was 8160 fluorescence intensity (a.u.). “TCGGTGGTCTTCTTGTTTTTCCTTCTGTATGTCAATCCTACGGAGTCACCTAGTGCAG”: the binding signal is 14700 fluorescence intensity (a.u.). The same measure for “GGTTGTGTGAGATCGATGGTATATTTCCGTAAAAATAATTCGGAGTCACCTAGTGCAG”: 9370 fluorescence intensity (a.u.); for “CTACTCCTCTCTGATTCCCTTGGCCAATTGTCCCTGGATGCGGAGTCACCTAGTGCAG”: 8980 fluorescence intensity (a.u.); for “AATATAACTCCCGCGACCCGGCCATCTCGTCTCCACCATTCGGAGTCACCTAGTGCAG”: 9260 fluorescence intensity (a.u.). The value for “TTGCCCGCTTATCGTTCTTTCTTCTTAAATATGTACTATCCGGAGTCACCTAGTGCAG” was 9110 fluorescence intensity (a.u.); that for “CCAGACTTATTTGATTCTCTCTTCTTTATATTTATCTTTTCGGAGTCACCTAGTGCAG” was 8950 fluorescence intensity (a.u.). The value for “AGCTCTCTGCCAATCAAGCTACACACCTTGTTCCCCTACTCGGAGTCACCTAGTGCAG” was 8270 fluorescence intensity (a.u.). As to “CGTAAGCACGTCCTGATTCTTGTTGCATTTCTCGTCCTGACGGAGTCACCTAGTGCAG”, the binding signal is 11000 fluorescence intensity (a.u.). The value for “TCCCTGCGTCGCAATGAATTGAGGGCTCATGGGCTTGGGGCGGAGTCACCTAGTGCAG” was 8740 fluorescence intensity (a.u.).

As to “GGTTGGATGGTTGGATTTGATGTGGATTTGAATTGTTATGCGGAGTCACCTAGTGCAG”, the binding signal is 16300 fluorescence intensity (a.u.).

In the case of “GGTTCTTGATTTTTCTTTTGGTTTGTTGTTTTGACGAATGCGGAGTCACCTAGTGCAG”, the binding signal was 11400 fluorescence intensity (a.u.).
